≈ marks a conversion by molar mass, not a printed value.
Experiments:
[1] = tested on: E. faecium; assay: Microdilution MIC, Enterococcus isolates with van resistance genes; format: cell-based
Procedure: (§1) Identification and characterization of resistance patterns of these bacteria were performed by standard methods.
(§2) When forming the test groups we attached great importance to the increasing incidence of drug-resistant microbes causing therapeutic problems. Most important of them are methicillin-resistant Staphylococcus aureus (MRSA), methicillin-resistant coagulase-negative Staphylococcus spp. (MRCoNS), penicillin-resistant Streptococcus pneumoniae (pneumococcus), vancomycin-resistant Enterococcus spp. (VRE). Pneumococcus isolates represented various serotypes, VRE isolates belonged to various species. Moreover, vancomycin-resistance of VRE isolates was based on different genetic backgrounds. Antibiotic-resistant strains were also represented among international reference strains, for example methicillin-resistant Staphylococcus aureus ATCC 43300 (MRSA), Staphylococcus aureus with decreased vancomycin susceptibility ATCC 700698 and 700699 (vancomycin intermediate Staphylococcus aureus—VISA), mupirocin-resistant Staphylococcus aureus ATCC BAA1708 and vancomycin-resistant Enterococcus faecalis ATCC 51299 (VRE).
(§3) Susceptibility tests were performed according to the standard microdilution method (NCCLS (CLSI) M7-A7).
(§4) The lowest concentration at which no bacterial growth was observed after the incubation period is the Minimal Inhibitory Concentration (MIC). The MIC value is inversely proportional to the antimicrobial efficacy. MIC values of antimicrobial agents can differ by species or even by bacterial strains within species.

[2] = tested on: E. faecalis; assay: as above; format: cell-based
Procedure: as §1, §2, §3, §4

SMILES: CN[C@H](CC(C)C)C(=O)N[C@H]1C(=O)N[C@@H](CC(N)=O)C(=O)N[C@H]2C(=O)N[C@H]3C(=O)N[C@H](C(=O)N[C@H](C(=O)O)c4cc(O)cc(O)c4-c4cc3ccc4O)[C@H](O)c3ccc(c(Cl)c3)Oc3cc2cc(c3O[C@@H]2O[C@H](CO)[C@@H](O)[C@H](O)[C@H]2O[C@H]2C[C@](C)(N)[C@H](O)[C@H](C)O2)Oc2ccc(cc2Cl)[C@H]1O [Vancomycin]
- MIC [1]: > 32 µg/mL
- MIC ([2]; resistance gene van A): > 32 µg/mL
- MIC ([2]; resistance gene van C1): 8 µg/mL (≈ 5.52 µM)

— US20140303105A1, “Primycin and components thereof for use in the treatment or prevention of infections caused by specific pathogens” (PANNONPHARMA GYÓGYSZERGYÁRTÓ ZRT., priority 2011, published 2014)
